# Reference: PubChem BioAssay AID1688 (National Center for Advancing Translational Sciences (NCATS), 2009)
# Among all 220,000 compounds or so, about 2,400 (1.1%) were called active. The shares of active, inactive and inconclusive entries below differ from those in the screen. Calls follow the shape of the dose curve; as a rule, active = well fitted inhibition curve with a large enough effect; inconclusive = small, poorly fitted or top-dose-only effect, or effect the other way; inactive = no such curve, though single readings can be large or run the other way. Where the call is inconclusive, the potency comes from a doubtful curve fit.
# Assay: qHTS Multiplex Assay to Identify Dual Action Probes in a Cell Model of Huntington: Aggregate Formation (GFP); also: nearly all actives have a fitted effect of over 60% in size
# Settings: PC12 HttQ103-GFP aggregates, Acumen cytometry, 40 h; activity change, negative = inhibition: at 46.1 µM (top of the series) unless noted
# Procedure, shortened: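 Steps: seed 1500 PC12 HTTQ103-GFP cells/well; add tebufenozide, 100 nM final; add compound titration; add ATPLite reagent; quantify GFP aggregates by laser scanning cytometry.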
# % is scaled to controls: 0 for no effect and ±100 for the full control effect; potency is read from the fitted curve at half-maximal effect.
SMILES,"activity change, negative = inhibition",Potency
CCCNCc1cc(OC)c(OCc2ccccc2)cc1Br,inactive: 6.49%,
Cc1cc2nnc(SCC(=O)OC(C)C)n2c2ccccc12,,active: 3.98 µM
O=C1N2CCCc3cccc(c32)C12Nc1ccccc1S2 (stereo not given),inactive: 0.821%,
Cc1ccc(CNC(=O)CNC(=S)N(Cc2ccccc2)Cc2ccccc2F)cc1,,"inconclusive: 15.8 µM [inhibitor, single point]"
CCCCCn1ccc(=O)c2c(C(F)(F)F)nccc21,,active: 11.2 µM
CS(=O)(=O)N1CCC(C(=O)N2CCN(C(c3ccccc3)c3ccccc3)CC2)CC1,inactive: 5.67%,
COc1ccc(C2=NOC(C(=O)NCc3cccs3)C2)cc1 (stereo not given),,"inconclusive: 3.55 µM [activator, single point]"
Cc1nn(Cc2ccc(Cl)cc2Cl)c(C)c1NC(=O)C1C2CCC(O2)C1C(=O)O (stereo not given),,"inconclusive: 3.98 µM [inhibitor, partial curve]"
Cc1ccccc1OCC(=O)N=Nc1c(O)n(C)c2ccccc12,,"inconclusive: 5.62 µM [activator, single point]"
N#Cc1c(N2CCN(C(=O)c3ccco3)CC2)nc(-c2ccccc2)c2c1CCCC2,,"inconclusive: 28.2 µM [inhibitor, single point]"
CC(C)CCN(CCC(C)C)C/C(O)=C(\C#N)c1nc(-c2ccccc2)cs1,inactive: -4.92% [at 9.22 µM],
O=C(OCCN=C1NS(=O)(=O)c2ccccc21)c1cccs1,inactive: 23%,
CCCN(CCC)CCNS(=O)(=O)c1ccc2c(c1)CCN2C(=O)C1CCC1,,"inconclusive: 1.26 µM [inhibitor, single point]"
COc1ccc(/C=N/Nc2cc(C)nc(-n3nc(C)cc3C)n2)c(OC)c1,,"inconclusive: 11.2 µM [inhibitor, partial curve]"
Fc1ccc(CNC(=S)Nc2ccccc2Cl)cc1,,"inconclusive: 17.8 µM [activator, single point]"
CNc1nc(C)cc(C)c1S(=O)(=O)c1ccc(C)cc1,,"inconclusive: 25.1 µM [inhibitor, single point]"
CCCNC(=O)N1CCN(c2nc(C(C)C)c3c(c2C#N)CC(C)(C)OC3)CC1,,"inconclusive: 31.6 µM [inhibitor, single point]"
Cc1ccc(Sc2ncccc2COC(=O)Nc2c(C)cccc2C)cc1,,"inconclusive: 35.5 µM [inhibitor, partial curve]"
CC1CCN(C(=O)c2cc3nc(-c4ccccc4)cc(-c4ccccc4)n3n2)CC1,,"inconclusive: 25.1 µM [inhibitor, single point]"
Cc1ccc(Nc2nc(-c3ccc(O)cc3O)cs2)nc1,,"inconclusive: 0.0158 µM [inhibitor, full curve, poor fit]"
Nc1nc(CN2CCN(c3ccccc3)CC2)nc(Nc2ccc(Cl)cc2)n1,,"inconclusive: 14.1 µM [inhibitor, single point]"
C=CCc1cc(C)ccc1OCC(O)CN1CCN(c2ccccc2)CC1 (stereo not given),,"inconclusive: 25.1 µM [inhibitor, single point]"
CCCC(NC(=S)NCC1CCCO1)C12CC3CC(CC(C3)C1)C2 (stereo not given),,"inconclusive: 1 µM [inhibitor, full curve]"
COc1cccc(C(=O)NN2CC(O)=C(c3nc4ccccc4n3C)C2=N)c1,,"inconclusive: 6.31 µM [activator, single point]"
O=C(NCCSCc1ccccc1)c1ccc(Cl)c(S(=O)(=O)N2CCOCC2)c1,,"inconclusive: 5.01 µM [inhibitor, single point]"

SMILES,"activity change, negative = inhibition",Potency
Cc1cccc(-n2c(-c3ccoc3C)n[nH]c2=S)c1,,"inconclusive: 6.31 µM [activator, single point]"
Cc1nc(-c2c(C(F)(F)F)noc2-c2ccc(O)cc2O)cs1,,"inconclusive: 35.5 µM [inhibitor, single point]"
Cc1sc2nc3n(c(=O)c2c1C)NC(=O)CC3,inactive: 2.62%,
CCOC(=O)c1c(C)[nH]c(C(=O)Cn2c(=O)c3c(ncn3CC)n(Cc3ccccc3)c2=O)c1C,inactive: 25.5%,
CC(C(=O)Nc1cc([N+](=O)[O-])ccc1Cl)N1CCN(c2ccccc2O)CC1 (stereo not given),inactive: 10.7%,
CC(=O)Nc1cc[n+](C(C)C(=O)c2ccc(Br)cc2)cc1 (stereo not given),inactive: 21.7% [at 9.22 µM],
CCOc1cccc(-c2nnc(SCC(=O)Nc3ccc(OC)c(OC)c3)n2N)c1,inactive: 3.4%,
O=C(O)CCCCCn1c(O)c(C=C2N=c3ccccc3=N2)sc1=S,,"inconclusive: 0.631 µM [activator, full curve]"
Cc1ccccc1NC(=S)NC1CCN(Cc2ccccc2)CC1,inactive: 12.2%,
COC(=O)C1=C(C)N(CCc2ccccc2)C(=O)/C1=C\c1ccco1,,"inconclusive: 15.8 µM [inhibitor, single point]"
CC[N+]1=C(C)C(C)(C)c2cc(C)ccc21,,active: 2.51 µM
COc1cc(/C=N/NC(=O)CCn2c3ccccc3c3ccccc32)ccc1O,,"inconclusive: 22.4 µM [inhibitor, partial curve, poor fit]"
Clc1ccc(CN(Cc2ccccc2)C(c2cccs2)c2nnnn2C2CCCC2)cc1 (stereo not given),inactive: -16.4%,
CCCOc1ccc(CC(=O)NNC(=S)Nc2ccccc2)cc1Br,inactive: -8.79%,
COC(=O)c1cc(N=Nc2c(C)[nH]c3ccccc23)cc(C(=O)OC)c1,inactive: -27.4% [at 9.22 µM],
Cc1nn(C(=O)CCCn2cc([N+](=O)[O-])cn2)c(C)c1Cl,inactive: -5.81%,
O=c1c2sc3nc(N4CCOCC4)c4c(c3c2ncn1-c1ccccc1)CCCC4,,"inconclusive: 35.5 µM [inhibitor, single point]"
CC(C)(CO)N=C1NS(=O)(=O)c2cc([N+](=O)[O-])ccc21,,active: 10 µM
CCOC(=O)CNC(=S)n1cnc(N)n1,inactive: 5.63%,
COc1cccc(-c2nnc(NC(=O)c3ccc4ncsc4c3)o2)c1,,"inconclusive: 11.2 µM [inhibitor, partial curve]"
CC1CN/C(=C\C(=O)c2ccc(Cl)cc2)C(=O)N1 (stereo not given),,"inconclusive: 28.2 µM [inhibitor, partial curve]"
Cc1c(N2C(=O)/C(=C\C3CC=CCC3)SC2=S)c(=O)n(-c2ccccc2)n1C (stereo not given),inactive: -32.9%,
COc1ccc(C(=O)NCc2ccc(-n3cccc3)cc2)cc1OC,inactive: 19.1%,
CSc1ncccc1C(=O)OCc1cccc([N+](=O)[O-])c1,,"inconclusive: 28.2 µM [activator, partial curve, poor fit]"
CC([NH2+][O-])C(C)(C)NO (stereo not given),,"inconclusive: 0.316 µM [inhibitor, full curve]"

SMILES,"activity change, negative = inhibition",Potency
CCN(CC)CCNc1ncnc2c1sc1nc(N3CCCC3)c3c(c12)CC(C)(C)OC3,,"inconclusive: 20 µM [inhibitor, single point]"
CCn1c(SC)nnc1-c1c[nH]c2ccccc12,,"inconclusive: 20 µM [inhibitor, partial curve]"
O=C(NC(=S)Nc1ccc2c(c1)OCO2)c1ccccc1,inactive: 31.9%,
COc1ccc(C(=O)Cn2nnc(-c3ccccc3NC(=O)C3CCCCC3)n2)cc1,,active: 12.6 µM
O=S(=O)(c1ccc(Cl)s1)N1CCN(C/C=C/c2ccccc2)CC1,,active: 35.5 µM
C=C1C(=O)C=C2CN(C(=O)c3ccccc3)[C@@](Cc3ccc(F)cc3)(C(=O)OC)[C@@H]12,,active: 5.01 µM
CCOc1cccc(C(=O)Nc2cccnc2)c1,inactive: 9.21%,
S=C(NCc1ccccc1)N1CCN(c2cccc(Cl)c2)CC1,,"inconclusive: 35.5 µM [inhibitor, single point]"
CCN1CCCc2cc(CN(CCN3CCOCC3)C(=S)Nc3ccc(OC)c(Cl)c3)ccc21,inactive: 8.1%,
COc1ccc(N(Cc2ccccc2)C(=O)CSc2nnc(Cn3nnc4ccccc43)o2)cc1,,"inconclusive: 35.5 µM [inhibitor, single point]"
CN1CCCC(C(=O)C(C#N)c2ccccc2)C1 (stereo not given),inactive: 5.09%,
CCOc1nc(SCCOc2ccccc2)nc(N(C)C)n1,,active: 0.447 µM
Cc1ccc(-n2ncc3c(N4CCN(c5ccccc5)CC4)ncnc32)c(C)c1,,"inconclusive: 7.08 µM [inhibitor, full curve]"
Cc1c(C(=O)Nc2nnc(C(F)(F)F)s2)oc2ccccc12,,"inconclusive: 2.24 µM [inhibitor, partial curve]"
COc1ccc(-c2nc3ccccn3c2CN2CCN(c3ccccc3F)CC2)cc1,,"inconclusive: 35.5 µM [inhibitor, single point]"
Cc1cc(=O)[nH]c(SCCOc2ccc(OC(C)C)cc2)n1,inactive: 17.9%,
COc1ccc(Br)c(C(=O)NC(C)(C)CO)c1,inactive: 1.57% [at 9.22 µM],
O=C(/C=C/c1ccccc1[N+](=O)[O-])NCCc1ccc(F)cc1,inactive: -1.61%,
CCCOc1ccc(C(=O)NCC(c2ccco2)N(C)C)cc1 (stereo not given),,"inconclusive: 1.26 µM [activator, single point]"
O=C(OCC(=O)N1CCCCCC1)c1ccc(Cl)c(S(=O)(=O)N2CCCC2)c1,inactive: 18%,
CN1CC=C2C(C#N)=C(N)C(C#N)(C#N)C(c3cccc(Cl)c3Cl)C2C1 (stereo not given),,"inconclusive: 0.112 µM [activator, full curve, poor fit]"
CC(=O)C1=C(c2ccccc2)NC(=S)NC1c1cc(Cl)c(OC(C)C)c(Cl)c1 (stereo not given),,"inconclusive: 14.1 µM [inhibitor, single point]"
CCCCNC(=S)Nc1ccc(Oc2ccccc2)cc1,,"inconclusive: 15.8 µM [inhibitor, single point]"
O=C(Nc1ccc(F)cc1)c1cc(S(=O)(=O)Nc2ccc(F)cc2)cs1,,"inconclusive: 35.5 µM [inhibitor, single point]"
O=C(NCCN1CCOCC1)c1ccc2c(c1)N(Cc1ccccc1)C(=O)CS2,inactive: -7.51%,
